{
  "source": "patent US20140378469A1",
  "about": "“LKB1/STK11 DELETION IN MELANOMA AND RELATED METHODS” (The University of North Carolina at Chapel Hill, priority 2012, published 2014)",
  "key": {"[1]": {"tested_on": "TKp53^L/Lp16^L/L melanoma cells", "test": "growth curve analysis (cell proliferation) with dasatinib", "format": "cell-based, murine", "conditions": "30 nM dasatinib; cells with or without Lkb1 knockdown; 0-96 hours; effect independent of Lkb1 knockdown"}, "[2]": {"tested_on": "CD24 mRNA in A2058 human melanoma cells with LKB1 knockdown", "test": "CD24 mRNA expression by quantitative RT-PCR", "format": "cell-based"}, "[3]": {"tested_on": "CD24 in A2058 human melanoma cells with LKB1 knockdown", "test": "CD24 protein expression by flow cytometry", "format": "cell-based", "conditions": "30 nM or 100 nM dasatinib; 0-72 h; dose-dependent; stated for human and murine melanoma cells"}, "advanced melanoma": {"tested_on": "advanced melanoma", "conditions": "6 of 36; cited from earlier work"}},
  "note": "At least one structure is not confirmed: it was looked up by name or label, or the drawing left a doubt.",
  "data": [
    {"smiles": "Cc1nc(Nc2ncc(C(=O)Nc3c(C)cccc3Cl)s2)cc(N2CCN(CCO)CC2)n1", "note": "[dasatinib]", "values": [
      {"measurement": "melanoma cell proliferation (growth curve)", "setting": "[1]", "result": "significantly inhibited"},
      {"measurement": "increase in CD24 mRNA expression due to LKB1 loss", "setting": "[2]; 30 nM or 100 nM dasatinib, 0-48 h, dose-dependent, stated for human and murine melanoma cells", "result": "suppressed"},
      {"measurement": "CD24 mRNA after short treatment", "setting": "[2]; as little as 12 hours of dasatinib treatment", "result": "sharply decreasing"},
      {"measurement": "increase in CD24 protein expression due to LKB1 loss", "setting": "[3]", "result": "suppressed"},
      {"measurement": "patients with tumor regression", "setting": "advanced melanoma", "result": 17, "unit": "%"}
    ]}
  ]
}
